From PubChem BioAssay AID248 (DTP/NCI, 2004) come the findings set out here.

The list shows only some results of the screen, not a fair sample: it is rich in T/C values a quarter to a half above the control, in often repeated tests (any T/C) and in doses without a T/C. Further doses and runs are listed elsewhere. T/C is the treated group as % of the vehicle group. Some doses have a count of surviving animals in place of a T/C: the source files T/C as zero there, which appears to mark a toxic dose or a test without result, not a measured value. Some survivor counts are full or nearly so, which does not show that the dose was tolerated: the source hardly ever lists a survival T/C far under the control, and the zero likely stands for such cases as well. Counts of survivors are from the toxicity check (mostly the fifth day) where no day follows; animals may have died later. Schedule codes are those of the source, read here as Q, the interval in days (D) or hours (H), X, the number of doses. Some schedules carry Z or #; the key to these is not given. Where survival is the endpoint, this PubChem deposit counts one and a half times the control or more as active, and values a quarter to a half above the control carry no call in these data; other NCI protocols may use other cut-offs.

The assay has as its system L1210 leukemia ip in BDF1 mice, survival T/C. Description: NCI In Vivo Anticancer Drug Screen. Data for tumor model L1210 Leukemia (intraperitoneal) in B6D2F1 (BDF1) mice. Conditions: T/C endpoint: mean survival time, higher T/C = longer survival.
Setting [1] is: dose: 400.0 mg/kg/injection, schedule: Q04DX002 (ip), vehicle: saline.
Setting [2] is: dose: 400.0 mg/kg/injection, schedule: Q01DX009 (ip), vehicle: Klucel (hydroxypropylcellulose) (HPC).
Setting [3] is: dose: 200.0 mg/kg/injection, schedule: Q01DX009 (ip), vehicle: saline with Tween-80.
The mark [4] stands for this setting: dose: 400.0 mg/kg/injection, schedule: Q01DX009 (ip), vehicle: saline with Tween-80.
Where [5] appears, read: dose: 400.0 mg/kg/injection, schedule: Q04DX003 (ip), vehicle: Klucel (hydroxypropylcellulose) (HPC).

On to `CCCCNC(C)(C)CSSSCC(C)(C)NCCCC`, for which the survivor count by setting is: (dose: 100.0 mg/kg/injection, schedule: Q04DX003 (ip), vehicle: other) 6 of 6; (dose: 200.0 mg/kg/injection, schedule: Q01DX009 (ip), vehicle: other) 1 of 6; (dose: 200.0 mg/kg/injection, schedule: Q04DX003 (ip), vehicle: other) 2 of 6; (dose: 400.0 mg/kg/injection, schedule: Q04DX003 (ip), vehicle: other) 0 of 6.

Consider `Cc1ccc(S(=O)(=O)OCC2OC(n3ccc(=O)[nH]c3=O)C3OC(C)(C)OC23)cc1` (configuration not stated), for which, under “dose: 200.0 mg/kg/injection, schedule: Q01DX005 (ip), vehicle: saline”, the T/C is 140 % of control.

`CCOC(=O)NOP(=O)(N1CC1)N1CC1`: the survivor count is, setting by setting: (dose: 200.0 mg/kg/injection, schedule: Q04DX002 (ip), vehicle: saline) 2 of 3; under setting [1], 3 of 3.

On to `COc1ccc(NC(=O)CCN2CC2)cc1`, for which the survivor count is, setting by setting: (dose: 150.0 mg/kg/injection, schedule: Q01DX009 (ip), vehicle: alcohol) 1 of 6; (dose: 225.0 mg/kg/injection, schedule: Q01DX009 (ip), vehicle: alcohol) 0 of 6; (dose: 335.0 mg/kg/injection, schedule: Q01DX009 (ip), vehicle: alcohol) 0 of 6; (dose: 400.0 mg/kg/injection, schedule: Q01DX001 (ip), vehicle: alcohol) 3 of 6.

Take `CC(=O)/C(N=O)=C(/C)O`: the survivor count is, setting by setting: (dose: 100.0 mg/kg/injection, schedule: Q01DX001 (ip), vehicle: saline with Tween-80) 6 of 6; (dose: 200.0 mg/kg/injection, schedule: Q01DX001 (ip), vehicle: saline with Tween-80) 6 of 6.

Take `CCc1ccccc1NC(=O)NCc1ccco1`: the survivor count under setting [2] was 0 of 6.

Consider `O=C1NC2C=CC1/C=C\C=C/2` (configuration not stated), for which the survivor count under setting [1] was 0 of 3.

On to `NC(N)=Nc1nc(N)nc(N)n1`, for which the survivor count is recorded as 1 of 3 (dose: 100.0 mg/kg/injection, schedule: Q01DX009 (ip), vehicle: saline with Tween-80) and 0 of 3 under setting [3].

As to `CSCCC(C#N)(CCN(C)C)c1ccccc1` (configuration not stated), the survivor count is 1 of 6 under setting [3], 0 of 6 under setting [4] and 0 of 6 under setting [5].

Turning to `O=C(O)CNCCN1CC(=O)N(Cc2ccccc2)C1=S`, the survivor count (dose: 400.0 mg/kg/injection, schedule: Q04DX003 (ip), vehicle: carboxymethylcellulose (CMC)) is listed as 5 of 6.

In the case of `CCOC(=O)C(C(=O)OCC)C(=O)c1cc(-c2ccc(Cl)c(Cl)c2)nc2c(Cl)cc(Cl)cc12`, the survivor count was 2 of 6 (dose: 200.0 mg/kg/injection, schedule: Q01DX009 (ip), vehicle: Klucel (hydroxypropylcellulose) (HPC)) and 1 of 6 under setting [5].

As to `CCOCc1nc(N)nc(N)c1-c1cccc(Cl)c1`, the survivor count under setting [4] is on record as 0 of 6.

On to `CCCCNC(=S)N/N=C/c1ccccn1`, for which the survivor count under setting [5] is 1 of 3.

In the case of `CC(F)C(Br)C(=O)O` (configuration not stated), the survivor count under setting [1] was 1 of 3.

As to `Nc1nc(N)c(N=O)c(Nc2ccc(Br)cc2)n1`, the survivor count by setting is: (dose: 240.0 mg/kg/injection, schedule: Q01DX Z (ip), vehicle: methylcellulose (MC)) 3 of 6; (dose: 360.0 mg/kg/injection, schedule: Q01DX Z (ip), vehicle: methylcellulose (MC)) 1 of 6.

`O=S1(=O)N2CN3CN(C2)CN1C3`: the survivor count under setting [2] is listed as 2 of 6.

As to `Cc1ccc(C(C)C)c(OCC(O)Cn2ccnc2)c1` (configuration not stated), the survivor count was 0 of 6 (dose: 200.0 mg/kg/injection, schedule: Q01DX001 (ip), vehicle: saline) and 0 of 6 (dose: 400.0 mg/kg/injection, schedule: Q01DX001 (ip), vehicle: saline).

With `CC(C)(C)C1C(=O)N1C(C)(C)C` (configuration not stated), under setting [2], the survivor count is reported as 1 of 6.
